Drawing on the supplement of paper PMC12873370, this text covers cell viability for 32 compounds.

“And” between values parts separate entries of the source, which are not always exact repeats. Identical values can stand only once. The list shows a part of the results. Repeats are few or missing, and single values can be far off.

For test [1], the system named is MEPP (mouse ovarian epithelium Trp53/Pten KO). Briefly: cell viability relative to untreated (fraction); higher = less growth inhibition. The note with it: 5 µM; 3 days.
Test [2] concerns PREPP (mouse prostate epithelium Trp53/Pten KO). The test is described as above. The note with it: 5 µM; 3 days.

Take `Nc1nc(=O)c2c([nH]1)NC[C@@H](CNc1ccc(C(=O)N[C@@H](CCC(=O)O)C(=O)O)cc1)N2C=O`: the cell viability in test [1] was 1.16 and 0.966; in test [2] it was 0.943 and 1.04.

For `C[C@H](CCC(=O)NCCS(=O)(=O)O)[C@H]1CC[C@H]2[C@@H]3[C@H](O)C[C@@H]4C[C@H](O)CC[C@]4(C)[C@H]3CC[C@]12C`, the cell viability in test [1] came out at 1.03; in test [2], 1.07.

Take `CC(=O)OCC(=O)[C@H]1CC[C@H]2[C@@H]3CCC4=CC(=O)CC[C@]4(C)[C@H]3CC[C@]12C`: the cell viability is 1.22 in test [1] and 0.888 in test [2].

Consider `CC(C)=CCCC(C)(O)C1CCC2(C)C1C(O)CC1C3(C)CCC(O)C(C)(C)C3CCC12C` (centres undefined), for which the cell viability came out at 0.975 in test [1] and 0.909 in test [2].

Turning to `CC12CCC(C1)C(C)(C)C2=O` (centres undefined), the cell viability in test [1] came to 0.942; in test [2], 0.982.

`Clc1ccc2c(c1)CCc1cccnc1C2=C1CCNCC1`: the cell viability in test [1] was found to be 1.16; in test [2] it was 0.827.

With `OC[C@H](O)C(O)[C@@H](O)CO`, the cell viability in test [1] worked out at 0.798; in test [2], 0.981.

For `O=C1/C(=C2\Nc3ccccc3C2=O)Nc2ccccc21`, the cell viability amounted to 1.06 in test [1] and 0.912 in test [2].

As to `CC(=O)Oc1cc(C)c(OC(C)=O)c2ccccc12`, the cell viability was 1.03 in test [1] and 0.946 in test [2].

Take `Clc1ccc(COC(Cn2ccnc2)c2ccc(Cl)cc2Cl)cc1` (centres undefined): the cell viability in test [1] amounted to 0.822; in test [2], 0.755.

Regarding `Cc1cc(=O)oc2cc(O)ccc12`, the figures for the cell viability in test [1] and in test [2] were 1.04 and 0.805, respectively.

On to `Nc1ccc(S(=O)(=O)Nc2cnc3ccccc3n2)cc1`, for which the cell viability was found to be 0.885 in test [1] and 1.2 in test [2].

As to `C/C=C(\C)C(=O)O`, the cell viability is 0.975 in test [1] and 1.04 in test [2].

Take `CC1=C(/C=C/C(C)=C/C=C/C(C)=C\C(=O)O)C(C)(C)CCC1`: the results for the cell viability in test [1] and in test [2] were 1.03 and 1.06, respectively.

With `C/C(=C\CNc1ncnc2nc[nH]c12)CO`, the cell viability in test [1] came out at 0.977; in test [2], 0.746.

Regarding `COc1cc2ccc(=O)oc2c(O)c1O`, the cell viability was 1 in test [1] and 1.31 in test [2].

Take `O=C(OCc1ccccc1)c1ccccc1`: the cell viability in test [1] worked out at 1.02; in test [2], 1.

As for `O=C(O)c1c[nH]c2ccccc12`, the results for the cell viability in test [1] and in test [2] were 0.919 and 1.03, respectively.

Consider `CC(=O)OC(CC(C)C1=C2C[C@H](O)C3[C@@]4(C)CCC(=O)C(C)(C)C4CC[C@]3(C)[C@@]2(C)CC1)C1OC1(C)C` (some centres undefined), for which the cell viability in test [1] is 1; in test [2], 1.01.

As to `O=C(O)c1cc(O)c2c(c1)[C@H]([C@H]1c3cc(C(=O)O)cc(O)c3C(=O)c3c(O[C@@H]4O[C@H](CO)[C@@H](O)[C@H](O)[C@H]4O)cccc31)c1cccc(O[C@@H]3O[C@H](CO)[C@@H](O)[C@H](O)[C@H]3O)c1C2=O`, the cell viability in test [1] came out at 1.07; in test [2] it was 1.1.

In the case of `COc1cc2oc(-c3ccc(O)cc3)cc(=O)c2c(O)c1[C@@H]1O[C@H](CO)[C@@H](O)[C@H](O)[C@H]1O[C@@H]1O[C@H](CO)[C@@H](O)[C@H](O)[C@H]1O`, the cell viability in test [1] was 0.961; in test [2], 1.06.

As to `O=C(/C=C/c1ccc(O)cc1)C1=C(O)C(O)([C@@H]2O[C@H](CO)[C@@H](O)[C@H](O)[C@H]2O)C(O)=C([C@@H]2O[C@H](CO)[C@@H](O)[C@H](O)[C@H]2O)C1=O` (some centres undefined), the results for the cell viability in test [1] and in test [2] were 1.24 and 1.07, respectively.

For `CC[C@H]1OC(=O)[C@H](C)[C@@H](O[C@H]2C[C@@](C)(OC)[C@@H](O)[C@H](C)O2)[C@H](C)[C@@H](O[C@@H]2O[C@H](C)C[C@H](N(C)C)[C@H]2O)[C@](C)(O)C[C@@H](C)/C(=N\OCOCCOC)[C@H](C)[C@@H](O)[C@]1(C)O`, the cell viability in test [1] turned out to be 1.16; in test [2], 0.875.

As to `N[C@H](CO)C(=O)O`, the cell viability was found to be 0.924 in test [1] and 0.843 in test [2].

Turning to `CCCCC[C@H](O)/C=C/[C@H]1[C@H](O)CC(=O)[C@@H]1C/C=C\CCCC(=O)O`, the cell viability came out at 0.759 in test [1] and 0.827 in test [2].

As for `CC1CC[C@@]2(OC1)O[C@H]1C[C@H]3[C@@H]4CC[C@@H]5C[C@@H](O[C@@H]6O[C@H](CO)[C@H](O)[C@H](O)[C@H]6O[C@@H]6O[C@H](CO)[C@@H](O)[C@H](O)[C@H]6O)CC[C@]5(C)[C@H]4CC[C@]3(C)[C@H]1[C@@H]2C` (some centres undefined), the cell viability was 0.881 in test [1] and 0.733 in test [2].

For `O=C1CCCC(=O)C1C(=O)c1ccc(C(F)(F)F)cc1[N+](=O)[O-]`, the cell viability in test [1] amounted to 0.772; in test [2], 0.875.

For `O=c1cc(-c2ccc(O)c(O)c2)oc2cc(O)cc(O)c12`, the results for the cell viability in test [1] and in test [2] were 0.941 and 1.31, respectively.

Regarding `CC1(C)CCC2=C(O1)c1ccccc1C(=O)C2=O`, the values for the cell viability in test [1] and in test [2] were 0.275 and 0.433, respectively.

In the case of `CO[C@H]1/C=C/O[C@@]2(C)Oc3c(C)c(O)c4c(O)c(c(/C=N/N5CCN(C6CCCC6)CC5)c(O)c4c3C2=O)NC(=O)/C(C)=C\C=C\[C@H](C)[C@H](O)[C@@H](C)[C@@H](O)[C@@H](C)[C@H](OC(C)=O)[C@@H]1C`, the figures for the cell viability in test [1] and in test [2] were 0.974 and 0.745, respectively.

Consider `C/C=C/C=C/C(=O)O`, for which the cell viability in test [1] was found to be 0.805; in test [2] it was 1.01.

Turning to `CCCCC(=O)O[C@H]1CC[C@H]2[C@@H]3CCc4cc(O)ccc4[C@H]3CC[C@]12C`, the cell viability in test [1] worked out at 1.01; in test [2] it was 0.915.
